Publication PMC5715071
No constants are given. Whether binding was seen depends on the method and setting. Binding seen in cells or lysates may run through a third protein. Some binding calls cover weakened binding; strength is not graded here.

Amino acid sequences for entries named in this document (tags omitted). Residues count along the entry.
UniProt O88900: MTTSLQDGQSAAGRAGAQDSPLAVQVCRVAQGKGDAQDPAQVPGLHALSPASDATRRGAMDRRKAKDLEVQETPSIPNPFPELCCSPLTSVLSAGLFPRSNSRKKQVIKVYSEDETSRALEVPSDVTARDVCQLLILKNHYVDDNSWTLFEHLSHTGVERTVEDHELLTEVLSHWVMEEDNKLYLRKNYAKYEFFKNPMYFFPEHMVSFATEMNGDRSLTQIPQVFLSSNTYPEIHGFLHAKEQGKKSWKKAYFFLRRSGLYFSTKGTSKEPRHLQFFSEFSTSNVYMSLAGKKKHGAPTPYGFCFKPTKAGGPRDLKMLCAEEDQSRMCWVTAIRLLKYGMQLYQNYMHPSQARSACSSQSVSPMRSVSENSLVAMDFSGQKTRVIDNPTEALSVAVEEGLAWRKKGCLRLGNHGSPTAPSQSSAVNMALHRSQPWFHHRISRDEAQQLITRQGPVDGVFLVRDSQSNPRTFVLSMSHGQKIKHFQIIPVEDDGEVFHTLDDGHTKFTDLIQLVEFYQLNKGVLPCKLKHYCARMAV
UniProt P06213, residues 28-1382: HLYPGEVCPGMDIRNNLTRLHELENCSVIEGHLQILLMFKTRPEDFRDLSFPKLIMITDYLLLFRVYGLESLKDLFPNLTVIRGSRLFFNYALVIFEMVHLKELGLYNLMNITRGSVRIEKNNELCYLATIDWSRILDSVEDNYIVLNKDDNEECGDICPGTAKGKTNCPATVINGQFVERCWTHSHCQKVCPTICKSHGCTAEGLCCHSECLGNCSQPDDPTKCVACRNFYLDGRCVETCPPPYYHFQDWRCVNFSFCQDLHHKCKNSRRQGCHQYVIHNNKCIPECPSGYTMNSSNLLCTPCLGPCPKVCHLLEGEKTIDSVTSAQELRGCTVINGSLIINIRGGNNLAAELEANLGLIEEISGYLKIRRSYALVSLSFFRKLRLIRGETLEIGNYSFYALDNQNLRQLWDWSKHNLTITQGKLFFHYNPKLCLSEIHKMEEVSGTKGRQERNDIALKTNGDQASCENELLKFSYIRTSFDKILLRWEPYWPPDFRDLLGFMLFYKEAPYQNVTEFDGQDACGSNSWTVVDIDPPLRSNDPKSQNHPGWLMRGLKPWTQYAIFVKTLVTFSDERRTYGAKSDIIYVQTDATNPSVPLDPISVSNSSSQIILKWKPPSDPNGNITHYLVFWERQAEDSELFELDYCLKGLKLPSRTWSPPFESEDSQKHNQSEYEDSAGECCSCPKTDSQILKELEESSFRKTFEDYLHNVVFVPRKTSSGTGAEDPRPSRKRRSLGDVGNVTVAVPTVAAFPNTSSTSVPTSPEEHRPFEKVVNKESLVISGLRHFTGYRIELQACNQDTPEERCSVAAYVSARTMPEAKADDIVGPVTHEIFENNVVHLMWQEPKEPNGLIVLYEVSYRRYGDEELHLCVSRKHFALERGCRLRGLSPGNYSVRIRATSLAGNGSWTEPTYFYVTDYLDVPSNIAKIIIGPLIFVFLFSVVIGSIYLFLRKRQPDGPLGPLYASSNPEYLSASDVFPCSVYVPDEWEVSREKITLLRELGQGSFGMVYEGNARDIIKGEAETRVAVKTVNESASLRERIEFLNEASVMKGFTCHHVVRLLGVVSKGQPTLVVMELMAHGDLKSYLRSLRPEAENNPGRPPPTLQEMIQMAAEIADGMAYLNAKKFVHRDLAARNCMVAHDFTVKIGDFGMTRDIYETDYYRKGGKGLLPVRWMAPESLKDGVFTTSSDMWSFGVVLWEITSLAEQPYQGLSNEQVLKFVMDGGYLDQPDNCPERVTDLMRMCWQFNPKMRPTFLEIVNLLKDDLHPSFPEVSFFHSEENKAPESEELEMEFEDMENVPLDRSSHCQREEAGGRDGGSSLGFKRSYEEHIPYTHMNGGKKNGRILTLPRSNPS

Tests used:
[1] = target: Growth factor receptor-bound protein 14 fused to YFP (Grb14-YFP) (UniProt O88900); assay: co-IP; wheat-germ-lectin partially purified IR-Rluc from control or insulin-stimulated cells preincubated 20 min with DMSO or compounds, Grb14-YFP extract added for 40 min; anti-GFP antibody and protein G-agarose 1 h at room temperature; blot with anti-IR; only the binder purified
[2] = target: Growth factor receptor-bound protein 14 fused to YFP (Grb14-YFP) (UniProt O88900); assay: FRET or BRET; a-cellular BRET; IR-Rluc partially purified on wheat-germ lectin Sepharose from HEK-293T cells stimulated or not with 100 nM insulin, preincubated 20 min at room temperature with compound or DMSO, then extract of Grb14-YFP cells for 40 min, coelenterazine 2.5 µM (Protocol 1); Protocol 2: Grb14-YFP extract preincubated with IR 40 min before C8; Protocol 3: all added simultaneously; only the binder purified

binding [1]: binds
binding [2]: binds
Substance: Insulin receptor fused to Renilla luciferase (IR-Rluc) (from UniProt P06213 28-1382)
